Measurements from PMC10758103.
Results are given in words; binding and its absence hold for the method and conditions named. In cells and extracts the contact can be indirect. A yes stands for co-enrichment or nearness to the bait. Other partners may have been found.

Sequences of proteins named here, by UniProt entry; tags and fusion partners are left off. Residues count along the entry.
UniProt Q07021, residues 74-282: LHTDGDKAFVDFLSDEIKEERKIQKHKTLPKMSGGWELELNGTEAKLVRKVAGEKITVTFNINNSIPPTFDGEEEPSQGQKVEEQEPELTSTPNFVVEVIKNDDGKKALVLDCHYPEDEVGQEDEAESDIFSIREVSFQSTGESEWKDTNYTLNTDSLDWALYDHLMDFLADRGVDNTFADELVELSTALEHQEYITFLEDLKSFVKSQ

Biological target: p32 (endogenous) (human (endogenous in HEK-293T, ACHN and 786-O)) (UniProt Q07021)
Experiment: affinity purification with mass spectrometry; immunoprecipitation with p32 antibody from mitochondrial extracts of HEK-293T cells, mass spectrometry

- binding: binds
B1: Dihydrolipoyllysine-residue acetyltransferase component of pyruvate dehydrogenase complex (DLAT), endogenous (protein, UniProt P10515 87-647)
chain: SLPPHQKVPLPSLSPTMQAGTIARWEKKEGDKINEGDLIAEVETDKATVGFESLEECYMAKILVAEGTRDVPIGAIICITVGKPEDIEAFKNYTLDSSAAPTPQAAPAPTPAATASPPTPSAQAPGSSYPPHMQVLLPALSPTMTMGTVQRWEKKVGEKLSEGDLLAEIETDKATIGFEVQEEGYLAKILVPEGTRDVPLGTPLCIIVEKEADISAFADYRPTEVTDLKPQVPPPTPPPVAAVPPTPQPLAPTPSAPCPATPAGPKGRVFVSPLAKKLAVEKGIDLTQVKGTGPDGRITKKDIDSFVPSKVAPAPAAVVPPTGPGMAPVPTGVFTDIPISNIRRVIAQRLMQSKQTIPHYYLSIDVNMGEVLLVRKELNKILEGRSKISVNDFIIKASALACLKVPEANSSWMDTVIRQNHVVDVSVAVSTPAGLITPIVFNAHIKGVETIANDVVSLATKAREGKLQPHEFQGGTFTISNLGMFGIKNFSAIINPPQACILAIGASEDKLVPADNEKGFDVASMMSVTLSCDHRVVDGAVGAQWLAEFRKYLEKPITMLL
